Values from PubChem BioAssay AID1224830 (NIAID, 2016).
In all, the deposit lists about 18,000 reagents; this is a part drawn at random. Over the whole deposit, about 2,900 (16%) are marked active. 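Calls are made per well; low scores hint the gene aids the LPS response, high scores that it dampens it.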 Repeated entries: four replicate wells of each siRNA pool.

Purpose: 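Regulators of TLR4 signalling towards TNF-alpha in macrophage-like cells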 (primary screen)
System: human THP-1 monocytic leukaemia cells, TNF dual-luciferase reporter clone, PMA-differentiated to macrophage-like cells
Reagent: siRNA pool against human genes, 50 nM
Timing: LPS for 4 h, given about 3 days after siRNA transfection
Challenge: bacterial LPS (TLR4 ligand), 10 ng/ml
Read-out: 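TNF firefly reporter luminescence divided by renilla, normalised to the plate median, then turned into a robust z-score for each replicate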
Scale: TNF reporter robust z-score: higher = stronger TNF reporter response to LPS
Rule for the call: 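Each well counts as active if its z-score is over 2.8 or under -1.5; controls are left without a call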

| gene | TNF reporter robust z-score | Outcome |
| --- | --- | --- |
| DMBX1 (GeneID 127343) | -0.58 | inactive |
| DMBX1 (GeneID 127343) | 0.29 | inactive |
| DMBX1 (GeneID 127343) | -0.1 | inactive |
| DMBX1 (GeneID 127343) | 0.44 | inactive |
| USP45 (GeneID 85015) | -1.28 | inactive |
| USP45 (GeneID 85015) | -1.02 | inactive |
| USP45 (GeneID 85015) | -0.69 | inactive |
| SLC47A2 (GeneID 146802) | -1.32 | inactive |
| SLC47A2 (GeneID 146802) | -0.45 | inactive |
| SLC47A2 (GeneID 146802) | -0.48 | inactive |
| DDX54 (GeneID 79039) | -0.06 | inactive |
| DDX54 (GeneID 79039) | -0.3 | inactive |
| DDX54 (GeneID 79039) | -0.6 | inactive |
| DDX54 (GeneID 79039) | -0.34 | inactive |
| KLHDC7A (GeneID 127707) | – | inactive |
| WFDC6 (GeneID 140870) | -0.86 | inactive |
| WFDC6 (GeneID 140870) | -1.12 | inactive |
| WFDC6 (GeneID 140870) | -1.18 | inactive |
| WFDC6 (GeneID 140870) | -0.78 | inactive |
| EEF1D (GeneID 1936) | 0.1 | inactive |
| EEF1D (GeneID 1936) | 0.07 | inactive |
| EEF1D (GeneID 1936) | -0.5 | inactive |
| EEF1D (GeneID 1936) | 1.24 | inactive |
| NYNRIN (GeneID 57523) | 0 | inactive |
| NYNRIN (GeneID 57523) | 0.09 | inactive |
| NYNRIN (GeneID 57523) | 0.14 | inactive |
| CERCAM (GeneID 51148) | 0.63 | inactive |
| CERCAM (GeneID 51148) | 0.88 | inactive |
| CERCAM (GeneID 51148) | 0.02 | inactive |
| CERCAM (GeneID 51148) | 1.9 | inactive |
| IFNA4 (GeneID 3441) | -0.07 | inactive |
| IFNA4 (GeneID 3441) | 0.94 | inactive |
| IFNA4 (GeneID 3441) | 1.47 | inactive |
| IFNA4 (GeneID 3441) | 2.14 | inactive |
| MTHFR (GeneID 4524) | -0.32 | inactive |
| MTHFR (GeneID 4524) | 0.11 | inactive |
| MTHFR (GeneID 4524) | -0.48 | inactive |
| MTHFR (GeneID 4524) | 0.33 | inactive |
| RNF11 (GeneID 26994) | -1.68 | active |
| RNF11 (GeneID 26994) | -0.09 | inactive |
| RNF11 (GeneID 26994) | 1.17 | inactive |
| RNF11 (GeneID 26994) | 0.75 | inactive |
| PCDHA6 (GeneID 56142) | -0.6 | inactive |
| PCDHA6 (GeneID 56142) | -0.76 | inactive |
| PCDHA6 (GeneID 56142) | -1.19 | inactive |
| PCDHA6 (GeneID 56142) | -0.1 | inactive |
| METTL25B (GeneID 51093) | -0.28 | inactive |
| METTL25B (GeneID 51093) | -0.47 | inactive |
| METTL25B (GeneID 51093) | -0.48 | inactive |
| METTL25B (GeneID 51093) | -0.06 | inactive |

Sorted by “TNF reporter robust z-score” (highest first): 7 of the entries above
| gene | TNF reporter robust z-score | Outcome |
| --- | --- | --- |
| RNF11 (GeneID 26994) | 1.17 | inactive |
| RNF11 (GeneID 26994) | 0.75 | inactive |
| MTHFR (GeneID 4524) | 0.33 | inactive |
| RNF11 (GeneID 26994) | -0.09 | inactive |
| MTHFR (GeneID 4524) | -0.48 | inactive |
| PCDHA6 (GeneID 56142) | -0.6 | inactive |
| RNF11 (GeneID 26994) | -1.68 | active |

Further records follow.
| gene | TNF reporter robust z-score | Outcome |
| --- | --- | --- |
| WASF2 (GeneID 10163) | 1.5 | inactive |
| WASF2 (GeneID 10163) | 1.49 | inactive |
| WASF2 (GeneID 10163) | 3.39 | active |
| WASF2 (GeneID 10163) | 2.59 | inactive |
| TNMD (GeneID 64102) | -0.76 | inactive |
| TNMD (GeneID 64102) | -0.92 | inactive |
| TNMD (GeneID 64102) | -0.94 | inactive |
| TNMD (GeneID 64102) | -1.03 | inactive |
| LGALS2 (GeneID 3957) | -1.08 | inactive |
| LGALS2 (GeneID 3957) | -0.68 | inactive |
| LGALS2 (GeneID 3957) | -0.91 | inactive |
| LGALS2 (GeneID 3957) | -0.64 | inactive |
| GJA4 (GeneID 2701) | -0.51 | inactive |
| GJA4 (GeneID 2701) | 0.86 | inactive |
| GJA4 (GeneID 2701) | -0.15 | inactive |
| GJA4 (GeneID 2701) | 0.39 | inactive |
| DDX51 (GeneID 317781) | -0.97 | inactive |
| DDX51 (GeneID 317781) | -1.02 | inactive |
| DDX51 (GeneID 317781) | -0.98 | inactive |
| DDX51 (GeneID 317781) | -0.14 | inactive |
| CARMIL3 (GeneID 90668) | -0.56 | inactive |
| CARMIL3 (GeneID 90668) | -0.5 | inactive |
| CARMIL3 (GeneID 90668) | -1.05 | inactive |
| CARMIL3 (GeneID 90668) | -0.55 | inactive |
| PDP1 (GeneID 54704) | 0.26 | inactive |
| PDP1 (GeneID 54704) | -0.74 | inactive |
| PDP1 (GeneID 54704) | 1.05 | inactive |
| PDP1 (GeneID 54704) | 2.4 | inactive |
| DDRGK1 (GeneID 65992) | 2.52 | inactive |
| DDRGK1 (GeneID 65992) | 0.87 | inactive |
| DDRGK1 (GeneID 65992) | 0.16 | inactive |
| DDRGK1 (GeneID 65992) | 2.34 | inactive |
| MLLT10 (GeneID 8028) | -0.7 | inactive |
| MLLT10 (GeneID 8028) | 0 | inactive |
| MLLT10 (GeneID 8028) | -1.47 | inactive |
| MLLT10 (GeneID 8028) | -1.15 | inactive |
| SLC9C2 (GeneID 284525) | -0.12 | inactive |
| SLC9C2 (GeneID 284525) | 1.47 | inactive |
| SLC9C2 (GeneID 284525) | 1.13 | inactive |
| SLC9C2 (GeneID 284525) | 3 | active |
| TUBAL3 (GeneID 79861) | -0.36 | inactive |
| TUBAL3 (GeneID 79861) | -0.11 | inactive |
| TUBAL3 (GeneID 79861) | -0.54 | inactive |
| TUBAL3 (GeneID 79861) | 0.13 | inactive |
| ADGRE5 (GeneID 976) | -0.36 | inactive |
| ADGRE5 (GeneID 976) | -0.76 | inactive |
| ADGRE5 (GeneID 976) | -0.99 | inactive |
| ADGRE5 (GeneID 976) | 0.04 | inactive |
| DRAM2 (GeneID 128338) | -0.98 | inactive |
| DRAM2 (GeneID 128338) | -1.24 | inactive |
| DRAM2 (GeneID 128338) | -0.64 | inactive |
| DRAM2 (GeneID 128338) | -0.76 | inactive |
| PCDHGA9 (GeneID 56107) | -1.49 | inactive |
| PCDHGA9 (GeneID 56107) | -0.42 | inactive |
| PCDHGA9 (GeneID 56107) | -1.07 | inactive |
| PCDHGA9 (GeneID 56107) | 0.04 | inactive |
| NEUROD2 (GeneID 4761) | -0.8 | inactive |
| NEUROD2 (GeneID 4761) | -1.01 | inactive |
| NEUROD2 (GeneID 4761) | -1.34 | inactive |
| NEUROD2 (GeneID 4761) | -1.15 | inactive |
